The text below walks through data of paper PMC11374810.

The chains behind the UniProt entries cited, without tags or fusion partners.
UniProt Q8K3C0: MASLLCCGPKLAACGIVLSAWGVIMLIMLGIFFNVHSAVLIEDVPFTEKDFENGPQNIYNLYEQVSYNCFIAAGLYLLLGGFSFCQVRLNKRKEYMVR

One test concerns the target T1, GFP-VPS4a (UniProt Q9UN37).
T1 sequence: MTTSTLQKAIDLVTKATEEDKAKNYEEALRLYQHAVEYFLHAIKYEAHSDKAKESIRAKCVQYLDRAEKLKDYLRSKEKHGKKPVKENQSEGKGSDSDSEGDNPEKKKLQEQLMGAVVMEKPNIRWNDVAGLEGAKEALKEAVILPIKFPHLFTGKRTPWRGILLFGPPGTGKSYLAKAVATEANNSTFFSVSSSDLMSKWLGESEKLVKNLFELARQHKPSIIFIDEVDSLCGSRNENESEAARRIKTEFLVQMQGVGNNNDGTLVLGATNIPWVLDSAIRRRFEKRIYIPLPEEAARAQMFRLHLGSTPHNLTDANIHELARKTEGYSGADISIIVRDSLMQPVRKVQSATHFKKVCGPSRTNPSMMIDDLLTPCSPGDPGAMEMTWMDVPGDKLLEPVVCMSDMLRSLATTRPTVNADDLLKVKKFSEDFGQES
Briefly: pull-down; cleared HEK293T lysates expressing individual transgenes mixed, incubated with GFP-Trap agarose beads overnight at 4 °C in PD buffer (150 mM NaCl, 20 mM Tris-HCl pH 7.5, 5 mM EDTA, 1% Triton-X); three washes; western blot; GFP alone as control.

For a further test, the target named is GFP-RNAseK (mouse) (UniProt Q8K3C0). Described as above.

No constants are given. Whether binding was seen depends on the method and setting. Binding seen in cells or lysates may run through a third protein. Some binding calls cover weakened binding; strength is not graded here. For some assays here: Sequences can lack the tags named with a protein.

In the case of “RNAseK-MYC-TurboID (from UniProt Q8K3C0 1-98)”, the binding entry in the test with GFP-VPS4a is “binds”.

B1: mCherry-VPS4a (protein, UniProt Q9UN37 1-437)
chain: T1 sequence
As for B1, in the test with GFP-RNAseK (mouse), the binding entry is reported as “binds”.
